Results are given in words; binding and its absence hold for the method and conditions named. Some binding calls cover weakened binding; strength is not graded here.
Tests used:
[1] = target: human CD70 (human) (UniProt P32970); experiment: IHC Leica BOND, ER2, FFPE HH cells, 4 µg/mL
[2] = target: human CD70 (human) (UniProt P32970); experiment: IHC Leica BOND, ER2, FFPE ACHN cells, 8 µg/mL
[3] = target: human CD70 (human) (UniProt P32970); experiment: IHC Leica BOND, ER2, FFPE Nomo-1 cells, 4 µg/mL
[4] = target: human CD70 (human) (UniProt P32970); experiment: IHC Leica BOND, ER2, FFPE MI cells (so in the source); likely MJ), 8 µg/mL
[5] = target: human CD70 (human) (UniProt P32970); experiment: IHC Leica BOND, ER2, FFPE HH cells, 8 µg/mL
[6] = target: human CD70 (human) (UniProt P32970); experiment: manual IHC, FFPE HuT78 cells (CD70 positive), 10 µg/mL
[7] = target: human CD70 (human) (UniProt P32970); experiment: manual IHC, FFPE MJ cells (CD70 positive), 10 µg/mL
[8] = target: human CD70 (human) (UniProt P32970); experiment: manual IHC, FFPE ACHN cells (CD70 positive), 10 µg/mL
[9] = target: human CD70 (human) (UniProt P32970); experiment: IHC Leica BOND, ER1, FFPE HuT78 cells, 4 µg/mL
[10] = target: human CD70 (human) (UniProt P32970); experiment: manual IHC, FFPE MM.1S cells (CD70 positive), 10 µg/mL
[11] = target: human CD70 (human) (UniProt P32970); experiment: IHC Leica BOND, ER2, FFPE MM.1S cells, 8 µg/mL
[12] = target: human CD70 (human) (UniProt P32970); experiment: IHC Leica BOND, ER1, FFPE MM.1S cells, 4 µg/mL
[13] = target: human CD70 (human) (UniProt P32970); experiment: IHC Leica BOND, ER1, FFPE HH cells, 4 µg/mL
[14] = target: human CD70 (human) (UniProt P32970); experiment: IHC Leica BOND, ER1, FFPE Nomo-1 cells, 4 µg/mL
[15] = target: human CD70 (human) (UniProt P32970); experiment: IHC Leica BOND, ER2, FFPE Nomo-1 cells, 8 µg/mL
[16] = target: human CD70 (human) (UniProt P32970); experiment: IHC Leica BOND, ER1, FFPE MJ cells, 4 µg/mL
[17] = target: human CD70 (human) (UniProt P32970); experiment: IHC Leica BOND, ER1, FFPE ACHN cells, 4 µg/mL
[18] = target: human CD70 (human) (UniProt P32970); experiment: manual IHC, FFPE HH cells (CD70 positive), 10 µg/mL
[19] = target: human CD70 (human) (UniProt P32970); experiment: IHC Leica BOND, ER2, FFPE HuT78 cells, 8 µg/mL
[20] = target: human CD70 (human) (UniProt P32970); experiment: IHC Leica BOND, FFPE renal clear cell carcinoma tissue microarray, 8 µg/mL
[21] = target: human CD70 (human) (UniProt P32970); experiment: manual IHC, FFPE Nomo-1 cells (CD70 positive), 10 µg/mL
[22] = target: human CD70 (human) (UniProt P32970); experiment: manual IHC, FFPE CD70 positive cell lines
[23] = target: human CD70 (human) (UniProt P32970); experiment: IHC Leica BOND, ER2, FFPE ACHN cells, 4 µg/mL
[24] = target: human CD70 (human) (UniProt P32970); experiment: IHC Leica BOND, ER2, FFPE HuT78 cells, 4 µg/mL
[25] = target: human CD70 (human) (UniProt P32970); experiment: IHC Leica BOND, ER2, FFPE MJ cells, 4 µg/mL
[26] = target: human CD70 (human) (UniProt P32970); experiment: IHC Leica BOND, ER2, FFPE MM.1S cells, 4 µg/mL
[27] = target: human CD70 (human) (UniProt P32970); experiment: IHC Leica BOND, ER1 and ER2, FFPE RCC tissues, 4 µg/mL

Protein sequences, listed by entry. Tags and fused reporters are not part of them. Lines headed by an entry give the natural chain unless they say otherwise; changes in a name come on top.
UniProt P32970: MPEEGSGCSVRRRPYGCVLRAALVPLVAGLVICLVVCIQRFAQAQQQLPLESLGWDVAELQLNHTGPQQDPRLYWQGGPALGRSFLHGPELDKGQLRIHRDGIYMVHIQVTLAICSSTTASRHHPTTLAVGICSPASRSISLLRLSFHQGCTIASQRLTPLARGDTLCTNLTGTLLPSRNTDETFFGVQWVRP

binding [1]: binds
binding [2]: binds
binding [3]: binds
binding [4]: binds
binding [5]: binds
binding [6]: binds
binding [7]: binds
binding [8]: binds
binding [9]: binds
binding [10]: binds
binding [11]: binds
binding [12]: binds
binding [13]: binds
binding [14]: binds
binding [15]: binds
binding [16]: binds
binding [17]: binds
binding [18]: binds
binding [19]: binds
binding [20]: binds
binding [21]: binds
binding [22]: binds
binding [23]: binds
binding [24]: binds
binding [25]: binds
binding [26]: binds
binding [27]: binds
B1: 11E12E8 (antibody, IgG1, V domains shown)
VH: DVQLVESGGGLVQPGGSRKLSCAASGFTFSRFGMNWVRQAPEKGLEWVAYISSGSGDIYYADTVKGRFTISRDNPKNTLFLQMTSLRSEDTAMYYCAVTWFAYWGQGTLVTVSA
VL: QAVVTQEPALTTSPGETVTLTCRSSTGAVTTSNYANWVQEKPDHLFTGLIGGTNNRAPGVPARFSGSLIGDKAALTITGAQTEDEAIYFCVLWYSNHFIFGSGTKVTVL

— patent US20210380707A1
